No constants are given. Whether binding was seen depends on the method and setting. Binding seen in cells or lysates may run through a third protein. Some binding calls cover weakened binding; strength is not graded here. For part of these data: Sequences can lack the tags named with a protein.
Tests used:
Experiment in all cases: co-IP; J-protein-3xFLAG and OsBiP-2HA-6His co-transfected into rice Oc cell protoplasts, overnight at 28 °C; extract in 50 mM TRIS-HCl pH 7.5, 150 mM NaCl, 0.5% Triton X-100; anti-FLAG M2 magnetic beads 2 h at 4 °C; washed with NET buffer (0.1% NP-40); blots with anti-FLAG-HRP and anti-HA-HRP; recovery of BiP-HA over input, relative to BiP1-HA
[1] = target: OsERdj2-FLAG (rice (Oryza sativa)) (UniProt Q7XVN7)
[2] = target: T1, OsERdj7-FLAG (rice (Oryza sativa)) (UniProt Q2QUP1)
T1 sequence: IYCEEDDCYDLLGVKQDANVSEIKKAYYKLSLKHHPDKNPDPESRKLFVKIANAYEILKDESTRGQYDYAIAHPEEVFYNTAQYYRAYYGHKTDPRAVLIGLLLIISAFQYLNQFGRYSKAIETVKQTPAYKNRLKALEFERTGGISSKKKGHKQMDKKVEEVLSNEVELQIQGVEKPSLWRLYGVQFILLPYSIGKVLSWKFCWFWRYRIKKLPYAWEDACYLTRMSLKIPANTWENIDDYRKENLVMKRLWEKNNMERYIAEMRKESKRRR

Chains of the proteins cited; added tags and fusions are not shown. Residues count along the entry.
UniProt Q7XVN7: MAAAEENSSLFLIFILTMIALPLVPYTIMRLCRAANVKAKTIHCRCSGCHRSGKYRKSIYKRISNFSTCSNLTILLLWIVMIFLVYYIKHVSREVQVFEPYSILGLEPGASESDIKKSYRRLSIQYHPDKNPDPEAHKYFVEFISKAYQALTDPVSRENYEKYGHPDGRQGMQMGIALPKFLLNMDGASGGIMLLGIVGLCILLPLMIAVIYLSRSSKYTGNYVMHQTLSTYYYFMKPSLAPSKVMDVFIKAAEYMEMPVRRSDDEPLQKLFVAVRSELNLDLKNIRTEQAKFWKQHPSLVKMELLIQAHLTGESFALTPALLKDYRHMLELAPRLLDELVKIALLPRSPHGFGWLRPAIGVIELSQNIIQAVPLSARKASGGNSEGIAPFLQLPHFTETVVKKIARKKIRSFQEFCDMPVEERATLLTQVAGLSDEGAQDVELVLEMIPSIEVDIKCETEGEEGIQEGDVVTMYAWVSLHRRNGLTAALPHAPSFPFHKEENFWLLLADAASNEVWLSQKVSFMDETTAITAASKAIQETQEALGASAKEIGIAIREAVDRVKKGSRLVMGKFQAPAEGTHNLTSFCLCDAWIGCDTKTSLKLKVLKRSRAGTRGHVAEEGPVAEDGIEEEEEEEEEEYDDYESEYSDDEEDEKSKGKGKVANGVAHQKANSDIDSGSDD
UniProt Q10MW6, residues 26-582: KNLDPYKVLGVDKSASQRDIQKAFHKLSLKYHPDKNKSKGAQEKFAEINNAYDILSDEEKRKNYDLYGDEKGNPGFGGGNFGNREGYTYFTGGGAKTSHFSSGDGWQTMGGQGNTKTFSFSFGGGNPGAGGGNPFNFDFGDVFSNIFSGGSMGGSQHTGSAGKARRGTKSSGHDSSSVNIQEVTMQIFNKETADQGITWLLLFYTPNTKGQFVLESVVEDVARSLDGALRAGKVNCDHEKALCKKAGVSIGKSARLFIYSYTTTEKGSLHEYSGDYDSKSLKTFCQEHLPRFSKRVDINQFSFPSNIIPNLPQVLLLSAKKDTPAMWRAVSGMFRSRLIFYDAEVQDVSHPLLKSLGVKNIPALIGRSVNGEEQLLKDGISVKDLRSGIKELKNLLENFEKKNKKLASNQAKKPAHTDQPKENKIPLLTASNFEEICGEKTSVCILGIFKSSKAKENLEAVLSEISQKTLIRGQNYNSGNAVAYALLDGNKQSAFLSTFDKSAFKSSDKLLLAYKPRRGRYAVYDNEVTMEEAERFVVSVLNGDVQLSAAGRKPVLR
UniProt Q6L590, residues 33-669: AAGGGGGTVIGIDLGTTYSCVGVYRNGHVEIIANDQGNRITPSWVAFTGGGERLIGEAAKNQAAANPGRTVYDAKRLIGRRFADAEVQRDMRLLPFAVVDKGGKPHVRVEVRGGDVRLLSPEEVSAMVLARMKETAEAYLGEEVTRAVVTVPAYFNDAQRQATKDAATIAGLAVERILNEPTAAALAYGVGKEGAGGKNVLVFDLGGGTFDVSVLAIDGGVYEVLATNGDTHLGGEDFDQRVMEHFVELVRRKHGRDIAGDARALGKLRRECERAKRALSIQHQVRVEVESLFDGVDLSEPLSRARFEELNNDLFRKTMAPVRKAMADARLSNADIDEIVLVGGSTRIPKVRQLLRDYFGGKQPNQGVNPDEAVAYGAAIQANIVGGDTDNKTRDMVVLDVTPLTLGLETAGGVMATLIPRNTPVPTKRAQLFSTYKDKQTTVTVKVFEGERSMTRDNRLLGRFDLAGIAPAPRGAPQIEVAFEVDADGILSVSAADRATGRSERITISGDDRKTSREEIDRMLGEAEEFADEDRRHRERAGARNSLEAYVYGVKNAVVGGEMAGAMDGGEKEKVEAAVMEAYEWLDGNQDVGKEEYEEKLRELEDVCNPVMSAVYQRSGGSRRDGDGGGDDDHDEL
UniProt Q6Z058, residues 28-676: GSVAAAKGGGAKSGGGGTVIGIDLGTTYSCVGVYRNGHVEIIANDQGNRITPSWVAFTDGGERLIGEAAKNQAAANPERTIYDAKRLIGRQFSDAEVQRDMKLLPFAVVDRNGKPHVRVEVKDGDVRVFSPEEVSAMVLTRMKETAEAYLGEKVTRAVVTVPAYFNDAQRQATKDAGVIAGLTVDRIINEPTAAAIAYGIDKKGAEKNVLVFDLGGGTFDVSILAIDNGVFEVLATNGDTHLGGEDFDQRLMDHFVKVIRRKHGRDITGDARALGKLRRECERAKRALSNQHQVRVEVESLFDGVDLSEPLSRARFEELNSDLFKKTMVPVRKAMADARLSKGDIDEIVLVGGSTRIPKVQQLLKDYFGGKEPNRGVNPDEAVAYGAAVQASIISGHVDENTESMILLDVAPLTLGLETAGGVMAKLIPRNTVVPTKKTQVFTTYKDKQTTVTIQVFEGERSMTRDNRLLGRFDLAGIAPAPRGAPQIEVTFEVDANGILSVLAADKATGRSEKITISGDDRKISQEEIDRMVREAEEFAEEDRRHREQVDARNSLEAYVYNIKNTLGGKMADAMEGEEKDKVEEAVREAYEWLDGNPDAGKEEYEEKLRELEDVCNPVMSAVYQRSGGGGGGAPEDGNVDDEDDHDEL
UniProt Q6Z7B0, residues 26-665: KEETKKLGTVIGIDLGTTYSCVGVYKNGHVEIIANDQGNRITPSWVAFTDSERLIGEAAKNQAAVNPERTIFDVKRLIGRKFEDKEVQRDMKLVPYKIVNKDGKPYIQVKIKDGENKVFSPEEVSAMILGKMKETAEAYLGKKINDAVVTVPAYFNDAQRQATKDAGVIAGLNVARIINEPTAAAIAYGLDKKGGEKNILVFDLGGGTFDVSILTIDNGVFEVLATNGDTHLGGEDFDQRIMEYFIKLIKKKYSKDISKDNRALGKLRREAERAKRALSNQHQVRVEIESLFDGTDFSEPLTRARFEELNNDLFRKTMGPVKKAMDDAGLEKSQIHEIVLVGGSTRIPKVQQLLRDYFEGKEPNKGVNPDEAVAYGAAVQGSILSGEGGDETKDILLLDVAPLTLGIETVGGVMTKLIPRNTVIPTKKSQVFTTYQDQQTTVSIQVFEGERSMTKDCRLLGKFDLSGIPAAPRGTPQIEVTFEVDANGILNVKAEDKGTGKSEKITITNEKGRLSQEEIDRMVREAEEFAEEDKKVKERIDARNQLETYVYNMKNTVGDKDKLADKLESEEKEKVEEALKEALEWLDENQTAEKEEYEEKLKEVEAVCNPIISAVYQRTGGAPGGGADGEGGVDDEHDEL

[3] = target: T2, OsP58B-FLAG (rice (Oryza sativa)) (UniProt Q5JNB5)
T2 sequence: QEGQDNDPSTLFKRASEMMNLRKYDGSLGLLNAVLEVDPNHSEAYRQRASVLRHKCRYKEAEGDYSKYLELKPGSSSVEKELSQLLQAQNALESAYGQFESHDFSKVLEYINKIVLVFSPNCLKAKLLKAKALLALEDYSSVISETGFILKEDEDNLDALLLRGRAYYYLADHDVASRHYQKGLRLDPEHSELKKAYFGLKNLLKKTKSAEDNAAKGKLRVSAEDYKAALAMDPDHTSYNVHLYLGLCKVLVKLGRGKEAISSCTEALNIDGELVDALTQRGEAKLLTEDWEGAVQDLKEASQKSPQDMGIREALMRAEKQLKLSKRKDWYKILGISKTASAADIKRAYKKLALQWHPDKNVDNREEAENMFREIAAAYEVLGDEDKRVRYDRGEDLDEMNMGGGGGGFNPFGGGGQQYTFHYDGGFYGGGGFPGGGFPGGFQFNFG

[4] = target: OsERdj3A-FLAG (rice (Oryza sativa)) (UniProt Q10MW6)
[5] = target: T3, OsERdj3B-FLAG (rice (Oryza sativa)) (UniProt B9FHF3)
T3 sequence: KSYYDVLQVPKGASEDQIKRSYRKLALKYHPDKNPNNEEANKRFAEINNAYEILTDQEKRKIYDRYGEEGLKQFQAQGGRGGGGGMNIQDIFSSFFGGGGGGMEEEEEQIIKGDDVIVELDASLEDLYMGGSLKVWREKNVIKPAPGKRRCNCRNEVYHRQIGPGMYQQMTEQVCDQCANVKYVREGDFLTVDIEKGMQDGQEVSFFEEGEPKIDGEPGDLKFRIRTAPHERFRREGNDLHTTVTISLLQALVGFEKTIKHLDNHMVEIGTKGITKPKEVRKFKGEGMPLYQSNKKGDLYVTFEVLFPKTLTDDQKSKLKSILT

[6] = target: T4, OsP58A-FLAG (rice (Oryza sativa))
T4 sequence: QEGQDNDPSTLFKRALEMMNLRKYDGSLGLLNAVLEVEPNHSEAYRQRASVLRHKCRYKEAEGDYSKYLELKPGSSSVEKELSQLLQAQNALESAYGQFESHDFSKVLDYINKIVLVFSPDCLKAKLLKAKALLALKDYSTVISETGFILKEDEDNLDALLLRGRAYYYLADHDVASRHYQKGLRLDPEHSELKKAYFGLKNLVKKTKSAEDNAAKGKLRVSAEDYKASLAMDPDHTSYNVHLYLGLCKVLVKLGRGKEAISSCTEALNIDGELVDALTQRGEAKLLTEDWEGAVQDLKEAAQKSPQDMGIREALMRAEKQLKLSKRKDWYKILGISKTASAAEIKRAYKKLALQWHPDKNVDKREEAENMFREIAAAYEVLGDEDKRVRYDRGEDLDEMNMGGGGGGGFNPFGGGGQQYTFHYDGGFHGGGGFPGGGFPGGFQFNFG

Measured: binding

OsBiP3-HA (from UniProt Q6L590 33-669)
binds: [1] | [2] | [3] | [4] | [5] | [6]

OsBiP5-HA (from UniProt Q6Z058 28-676)
binds: [1] | [2] | [3] | [5] | [6]

OsBiP1-HA (from UniProt Q6Z7B0 26-665)
binds: [1] | [2] | [3] | [4]

Source: PMC3871807
